From patent US12459939B2 (SHANGHAI RINGENE BIOPHARMA CO., LTD., priority 2019, dated 2025)
Some results were stated once for a whole list of compounds, not compound by compound.

How the values were obtained:
[1] = test system: BRD2 BD1/2, BRD3 BD1/2, BRD-T BD1/2, HDAC, EZH2, LSD1, G9a and protein kinases (EGFR, VEGFR, PDGFR, FGFR, RET, MET, Src, Lyn, Syk, MEK, CDK, RAF); assay: Inhibitory activity on different enzymes (other BRDs, epigenetic enzymes, protein kinases); type: biochemical; conditions: versus other BRD domains
[2] = test system: MV 4-11 transplanted tumor; assay: Growth inhibition of MV 4-11 transplanted tumor in nude mice; type: in vivo; conditions: 10 mg/kg-30 mg/kg, once a day, gavage, 21 days
Experimental: The tumor tissue in vigorous growth stage was cut into about 1.5 mm^3 and inoculated subcutaneously in the right armpit of nude mice under sterile conditions. The diameter of subcutaneous transplanted tumor in nude mice was measured with vernier caliper, and the animals were randomly divided into groups when the average tumor volume was about 130 mm^3. […] During the whole experiment, the diameter of the transplanted tumor was measured twice a week, and the weight of mice was weighed at the same time. The calculation formula of tumor volume (TV) was: TV=½×a×b^2, wherein a and b represent the length and width respectively. The relative tumor volume (RTV) was calculated according to the measurement results, and the calculation formula was: RTV=VT/v0. Wherein VO is the tumor volume measured during the administration in cage (i.e., d0), and Vt is the tumor volume at each measurement.

SMILES	BRD-BD2 selectivity and kinase target selectivity [1]	T/C ratio (relative tumor proliferation rate) [2]
Cc1cc(F)cc(C)c1Oc1ccc(C(C)(C)O)cc1-c1cn(C)c(=O)c2cc(C(=O)NCC(F)F)[nH]c12 [Embodiment 11, N-(2,2-difluoroethyl)-7-(2-(4-fluoro-2,6-dimethylphenoxy)-5-(2-hydroxyprop-2-yl)phenyl)-5-methyl-4-oxo-4,5-dihydro-1H-pyrrolo[3,2-c] pyridine-2-amide]	more than 100 times	
Cc1cc(F)cc(C)c1Oc1ccc(C(C)(C)O)cc1-c1cn(C)c(=O)c2cc(C(=O)NC3CC(F)(F)C3)[nH]c12 [Embodiment 18, N-(3,3-difluorocyclobutyl)-7-(2-(4-fluoro-2,6-dimethylphenoxy)-5-(2-hydroxyprop-2-yl)phenyl)-5-methyl-4-oxo-4,5-dihydro-1H-pyrrolo[3,2-c] pyridine-2-amide]	more than 100 times	less than 40%
